Test results reported in PubChem BioAssay AID1439 (NMMLSC, 2008).
The whole screen tested about 220,000 compounds, of which about 770 (0.35%) were called active. Inconclusive results, whose numbers are uncertain, are shown with a selection of clear calls. Rule as the data show it: active = binding response below about 49% or above about 150%; inconclusive = no clear call, values can overlap the other calls; inactive = in between.

Amino acid sequences for entries named in this document (tags omitted).
UniProt P09471, whole entry, looked up: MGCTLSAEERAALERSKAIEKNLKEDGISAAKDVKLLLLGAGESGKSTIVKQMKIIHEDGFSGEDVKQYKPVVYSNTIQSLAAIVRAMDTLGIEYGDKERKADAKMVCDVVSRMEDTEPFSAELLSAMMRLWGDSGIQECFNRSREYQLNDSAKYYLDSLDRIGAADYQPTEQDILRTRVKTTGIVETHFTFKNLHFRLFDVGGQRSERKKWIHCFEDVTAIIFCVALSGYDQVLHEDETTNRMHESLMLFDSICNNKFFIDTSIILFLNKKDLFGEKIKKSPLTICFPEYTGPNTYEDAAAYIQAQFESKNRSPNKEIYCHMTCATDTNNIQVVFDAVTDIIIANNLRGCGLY

target: Guanine nucleotide-binding protein G(o) subunit alpha (Homo sapiens) (UniProt P09471); assay: RGS7-Galphao binding modulators, primary screen, biochemical, multiplexed bead flow cytometry (AID 1439); conditions: at 10 µM, actives lie on both sides;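 also: fluorescent Galphao held in activated GDP-AlF4 state binding bead-coupled RGS7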

SMILES | binding response (% of control)
CCOc1ccccc1-n1c(C)cc(C=O)c1C | inconclusive: 59.6%
O=c1[nH]nc(SCCS(=O)(=O)c2ccc(F)cc2)n1-c1ccccc1C(F)(F)F | inconclusive: 100%
Cc1ccn2cc(C34CC5CC(CC(C5)C3)C4)nc2c1 | inactive: 98.7%
O=C(N/N=C/c1cccc(Cl)c1)c1c(O)c2c([nH]c1=O)CCCC2 | inconclusive: 71.3%
Cc1ccc(N=Nc2c(O)c3ccccc3[nH]c2=O)c(S(=O)(=O)N(C)C)c1 | inconclusive: 80.8%
CS(=O)(=O)c1ccc(C(=O)NCCN2C(=O)S/C(=C\c3cccnc3)C2=O)cc1[N+](=O)[O-] | inactive: 99.7%
O=C1/C(=C/c2cccnc2)N=C2CCCCCN12 | inconclusive: 106%
COc1cccc(NC(=O)C(c2ccccc2)N2CCCC2)c1 (stereo not drawn) | inconclusive: 68.5%
Cc1ccc(SCCN2CCN(CCc3ccccc3)CCC2=O)cc1 | inconclusive: 127%
CC(C)=C(NC(=O)c1ccccc1Br)C(=O)NCCc1nc2ccccc2[nH]1 | inconclusive: 102%
COc1cc(C2C=C(c3cccs3)Nc3ncnn32)cc(OC)c1OC (stereo not drawn) | inactive: 96%
NC(=O)c1cccc(CC(=O)c2ccccc2)c1 | inconclusive: 67.5%
O=C(NCCOC(=O)c1ccccc1C(=O)OCCNC(=O)c1cccnc1)c1cccnc1 | inactive: 101%
COC(=O)N/N=C/c1ccc(OC(=O)c2ccco2)c(OC)c1 | inconclusive: 98.3%
Cc1cc(Br)c2c(c1)C(O)(N1CCCCC1C)C(=O)N2 (stereo not drawn) | inactive: 101%
O=C(O)CC/C(=N/NC(=O)CNC(=O)C(c1ccccc1)c1ccccc1)c1ccccc1 | inconclusive: 86.9%
C/C(=C\C(=O)C(F)(F)F)Nc1ccc(C)cc1 | inactive: 117%
CCN(CC)c1ccc([C@H]2[C@@H]3CCCC[C@]3(O)CCN2CC(=O)NCc2ccco2)cc1 | inconclusive: 96.5%
C=CC[n+]1c(-c2ccccc2)csc1NC(C)(C)C | inconclusive: 121%
COc1ccccc1-c1cc(C(=O)Nc2ccc(F)cc2F)no1 | inactive: 99.6%

Given as a markdown table: 4 of the compounds above.

| SMILES | binding response (% of control) |
| --- | --- |
| CS(=O)(=O)c1ccc(C(=O)NCCN2C(=O)S/C(=C\c3cccnc3)C2=O)cc1[N+](=O)[O-] | inactive: 99.7% |
| COc1cc(C2C=C(c3cccs3)Nc3ncnn32)cc(OC)c1OC (stereo not drawn) | inactive: 96% |
| NC(=O)c1cccc(CC(=O)c2ccccc2)c1 | inconclusive: 67.5% |
| Cc1cc(Br)c2c(c1)C(O)(N1CCCCC1C)C(=O)N2 (stereo not drawn) | inactive: 101% |

Going on with the list.

SMILES | binding response (% of control)
Cc1ccc(NC(=S)N(CCN(C)C)Cc2cccs2)cc1 | inconclusive: 102%
C=CCN1c2ccccc2[C@]23C[C@@H](C(=O)OC)N(C(=O)c4cc(C)oc4C)C2=NC(C(=O)OC)=C(C(=O)OC)[C@H]13 | inconclusive: 99.8%
CCOc1ncccc1C(=O)Nc1ccc2c(c1)OCO2 | inconclusive: 93.1%
COc1ccc(C)cc1NC(=O)c1ccc(NS(=O)(=O)c2cccc3cccnc23)cc1 | inconclusive: 96.4%
COCCNC(=O)c1ccc(NC(=O)C2(c3ccccc3)CCCC2)cc1 | inconclusive: 108%
CCOC(=O)C(=CNc1ccccc1Cl)C(=O)OCC | inconclusive: 132%
O=C(CSc1n[nH]c(-c2ccccc2O)n1)N1CCOCC1 | inactive: 102%
CCN(CC(=O)Nc1ccccc1Br)C1CCCCC1 | inconclusive: 97.2%
CC(C1CC1)N(Cc1ccccc1)C(=O)NC(=O)c1ccc(F)cc1 (stereo not drawn) | inconclusive: 90.2%
CCOc1ccc(OCC)c(NC(=O)C2CCN(S(=O)(=O)c3cnc[nH]3)CC2)c1 | inactive: 100%
CN(CCc1ccccn1)c1ccc([N+](=O)[O-])cn1 | inconclusive: 104%
O=C(/C=C/c1cc[n+](CC(=O)c2ccc3cccc4c3c2CC4)cc1)c1ccc2cccc3c2c1CC3 | inconclusive: 142%
O=C(Nc1ccc(Oc2cccc(C(F)(F)F)c2)nc1)c1ccccc1 | inconclusive: 6.05%
COC(=O)c1ccc(CNC(=O)c2cc3ccccc3oc2=O)cc1 | inconclusive: 103%
O=C(Cc1ccc(Br)cc1)N1CCN(c2ccccc2)CC1 | inactive: 102%
NS(=O)(=O)c1cccc(NS(=O)(=O)c2cccc(C(F)(F)F)c2)c1 | inconclusive: 119%
NC(=O)COc1ccccc1 | inconclusive: 83.2%
CN(C(=O)CCl)C1CCCc2ccccc21 (stereo not drawn) | inconclusive: 98.9%
CCc1ccc2nc3sc(C(=O)O)cc3cc2c1 | inactive: 99.5%
O=C(OC1C2CCC1C1CN(CCc3ccccc3)CC12)c1ccccc1 (stereo not drawn) | inactive: 101%

SMILES | binding response (% of control)
CCOC(=O)NC(=O)CSc1nc2ccc(C)cc2[nH]1 | inconclusive: 93.8%
CCc1ccc(O)c(-c2cc(C(=O)Nc3cccnc3)[nH]n2)c1 | inconclusive: 90.2%
O=C(c1ccccc1)c1ccccc1C(=O)N1CCN(C(=O)c2ccccc2)CC1 | inconclusive: 81.5%
Fc1ccc(C2=NOC(c3nnc(-c4ccccc4)o3)C2)cc1 (stereo not drawn) | inconclusive: 130%
Cc1ccc(S(=O)(=O)NNc2nnc(C)c(=O)[nH]2)cc1 | inconclusive: 137%
O=C(O)C1=C[C@@H](c2ccc(F)cc2)C[C@@H](OCCCCO)O1 | inconclusive: 107%
NC(=S)N/N=C/c1ccc(/C=N/NC(N)=S)cc1 | inconclusive: 77.1%
CCNC(=O)C(Sc1ccccc1)c1ccccc1 (stereo not drawn) | inactive: 105%
COc1ccc(-c2c[n+]3c(n2-c2ccc(C)cc2)CCCCC3)cc1 | inconclusive: 178%
CCC(=O)N1N=C(c2ccc(C)cc2)CC1c1ccco1 (stereo not drawn) | inconclusive: 17.4%
CCOc1ncccc1C(=O)OCC(=O)Nc1ccc(C(N)=O)cc1 | inconclusive: 199%
O=C(NCCCN1CCCC1)c1cccc(N2CCCC2=O)c1 | active: 7.59%
COC(=O)c1cc(O)cc(OC)c1C(=O)c1c(O)cc(C)cc1O | inconclusive: 19.1%
COc1ccc(C(CC(=O)N2CCCCC2)c2c(O)cc(OC)cc2OC)cc1 (stereo not drawn) | inconclusive: 118%
CC(C)C(C(=O)N1CCN(C(=O)OC(C)(C)C)CC1)n1cc(-c2cn([C@@H](C)C(=O)N3CCN(C(=O)OC(C)(C)C)CC3)nn2)nn1 (stereo partly drawn) | inconclusive: 144%
COc1cc(O)c(C(CC(=O)N2CCCCC2)c2ccc(N(C)C)cc2)c(OC)c1 (stereo not drawn) | inconclusive: 101%
O=C(NC1C2CC3CC(C2)CC1C3)c1ccc(N2CCNCC2)c([N+](=O)[O-])c1 (stereo not drawn) | inconclusive: -70.7%
CCOC(=O)c1c(CSCc2ccccc2)oc2ccc(O)c(CN(C)C)c12 | inconclusive: 95.1%
